This note sets out measurements from publication PMC3037912.

Assay [1] deals with T1, GST-annexin A6 fusion protein, full length (UniProt P48037).
T1 sequence: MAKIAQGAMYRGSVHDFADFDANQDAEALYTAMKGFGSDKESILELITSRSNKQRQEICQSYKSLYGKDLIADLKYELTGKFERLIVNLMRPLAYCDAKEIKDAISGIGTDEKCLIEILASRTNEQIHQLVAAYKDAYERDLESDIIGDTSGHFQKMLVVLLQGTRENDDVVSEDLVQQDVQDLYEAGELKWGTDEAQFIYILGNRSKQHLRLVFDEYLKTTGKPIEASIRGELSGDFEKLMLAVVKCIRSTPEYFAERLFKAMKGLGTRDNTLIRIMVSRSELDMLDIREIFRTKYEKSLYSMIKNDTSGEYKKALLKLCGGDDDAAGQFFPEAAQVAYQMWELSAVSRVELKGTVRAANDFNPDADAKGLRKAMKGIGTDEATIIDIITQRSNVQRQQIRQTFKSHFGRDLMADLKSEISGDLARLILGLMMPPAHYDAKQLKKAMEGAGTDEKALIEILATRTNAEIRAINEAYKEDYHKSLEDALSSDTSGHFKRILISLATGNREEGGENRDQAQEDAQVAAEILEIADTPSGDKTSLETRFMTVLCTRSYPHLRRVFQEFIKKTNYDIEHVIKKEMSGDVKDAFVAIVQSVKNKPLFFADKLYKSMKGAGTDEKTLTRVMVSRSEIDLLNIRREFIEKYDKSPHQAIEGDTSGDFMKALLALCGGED
In words: pull-down; as the in vitro binding assay, but with delipidated (lipid depleted) whole heart homogenate; immunoblot with anti sarcomeric α-actinin antibody; only the target purified. A general note: In western blotting, separated proteins are transferred to a membrane and probed.

Assay [2] deals with T2, GST-AnxA6 ΔC1 (UniProt P48037).
T2 sequence: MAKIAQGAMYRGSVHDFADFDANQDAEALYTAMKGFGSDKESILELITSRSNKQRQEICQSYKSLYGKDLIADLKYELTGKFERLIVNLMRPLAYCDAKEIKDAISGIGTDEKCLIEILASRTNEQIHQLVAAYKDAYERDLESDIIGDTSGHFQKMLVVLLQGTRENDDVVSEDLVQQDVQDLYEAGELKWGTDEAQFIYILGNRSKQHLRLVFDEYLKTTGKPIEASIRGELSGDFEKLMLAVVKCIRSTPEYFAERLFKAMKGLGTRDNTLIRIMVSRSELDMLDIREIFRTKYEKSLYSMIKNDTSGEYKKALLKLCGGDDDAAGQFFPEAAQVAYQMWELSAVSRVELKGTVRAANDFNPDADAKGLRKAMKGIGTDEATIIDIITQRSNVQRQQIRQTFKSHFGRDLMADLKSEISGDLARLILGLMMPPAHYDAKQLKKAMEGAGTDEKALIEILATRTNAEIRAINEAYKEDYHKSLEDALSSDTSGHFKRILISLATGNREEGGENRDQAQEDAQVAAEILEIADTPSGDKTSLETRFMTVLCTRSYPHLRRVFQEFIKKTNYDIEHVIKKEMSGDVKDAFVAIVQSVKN
Kind of assay: pull-down; GST-AnxA6 or its deletion mutants on glutathione-sepharose incubated with solubilised rat whole heart homogenate (1.5 mg), 4°C, 5 hours; wash buffer 10 mM Tris pH 8.5, 0.01% NP-40, 5 mM EDTA, 2 mM DTT, 0.05% SDS; immunoblot with anti sarcomeric α-actinin antibody; only the target ….

For assay [3], the target named is T3, GST-AnxA6 ΔC3 (UniProt P48037).
T3 sequence: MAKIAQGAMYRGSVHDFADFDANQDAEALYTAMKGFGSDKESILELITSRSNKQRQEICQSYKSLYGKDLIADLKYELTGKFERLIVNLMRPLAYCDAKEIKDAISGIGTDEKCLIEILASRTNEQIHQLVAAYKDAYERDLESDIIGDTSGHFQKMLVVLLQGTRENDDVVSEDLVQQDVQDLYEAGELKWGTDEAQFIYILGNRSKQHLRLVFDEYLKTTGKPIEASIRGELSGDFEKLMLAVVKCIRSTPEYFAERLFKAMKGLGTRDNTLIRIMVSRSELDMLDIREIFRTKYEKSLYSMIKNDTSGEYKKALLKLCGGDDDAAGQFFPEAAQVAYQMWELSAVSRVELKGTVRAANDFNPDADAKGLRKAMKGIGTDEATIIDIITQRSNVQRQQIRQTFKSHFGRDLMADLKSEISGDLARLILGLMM
Described as above.

In assay [4] the target is T4, GST-AnxA6 ΔN1 (UniProt P48037).
T4 sequence: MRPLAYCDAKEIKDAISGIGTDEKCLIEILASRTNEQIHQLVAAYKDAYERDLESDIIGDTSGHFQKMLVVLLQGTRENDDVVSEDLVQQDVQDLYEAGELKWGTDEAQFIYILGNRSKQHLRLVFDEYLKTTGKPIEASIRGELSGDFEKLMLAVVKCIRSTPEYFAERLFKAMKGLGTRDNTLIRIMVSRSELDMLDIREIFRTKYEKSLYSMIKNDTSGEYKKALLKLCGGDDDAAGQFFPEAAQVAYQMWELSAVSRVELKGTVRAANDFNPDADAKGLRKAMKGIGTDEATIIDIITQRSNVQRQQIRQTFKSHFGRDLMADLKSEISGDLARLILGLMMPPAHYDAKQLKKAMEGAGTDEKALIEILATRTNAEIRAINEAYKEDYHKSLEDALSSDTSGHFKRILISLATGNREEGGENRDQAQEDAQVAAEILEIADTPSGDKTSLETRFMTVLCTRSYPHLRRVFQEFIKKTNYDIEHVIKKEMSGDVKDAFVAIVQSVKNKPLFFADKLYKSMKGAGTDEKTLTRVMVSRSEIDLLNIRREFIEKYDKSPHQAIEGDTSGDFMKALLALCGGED
The description is as above.

Assay [5] addresses T5, GST-AnxA6 ΔN2 (UniProt P48037).
T5 sequence: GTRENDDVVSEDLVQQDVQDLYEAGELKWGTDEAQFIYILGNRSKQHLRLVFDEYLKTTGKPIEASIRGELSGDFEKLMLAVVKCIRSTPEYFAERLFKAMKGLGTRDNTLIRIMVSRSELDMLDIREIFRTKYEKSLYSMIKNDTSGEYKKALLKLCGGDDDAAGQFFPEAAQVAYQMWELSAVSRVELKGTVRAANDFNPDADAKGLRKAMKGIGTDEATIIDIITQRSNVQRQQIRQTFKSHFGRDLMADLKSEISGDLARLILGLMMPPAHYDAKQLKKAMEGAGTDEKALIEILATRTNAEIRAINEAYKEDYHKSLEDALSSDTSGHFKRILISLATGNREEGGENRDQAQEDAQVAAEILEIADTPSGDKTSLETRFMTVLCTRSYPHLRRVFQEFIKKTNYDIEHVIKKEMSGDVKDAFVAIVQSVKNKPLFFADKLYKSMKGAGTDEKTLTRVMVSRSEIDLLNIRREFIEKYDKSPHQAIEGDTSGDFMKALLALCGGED
The assay is described as above.

The target of assay [6] is T6, GST-AnxA6 ΔN3 (UniProt P48037).
T6 sequence: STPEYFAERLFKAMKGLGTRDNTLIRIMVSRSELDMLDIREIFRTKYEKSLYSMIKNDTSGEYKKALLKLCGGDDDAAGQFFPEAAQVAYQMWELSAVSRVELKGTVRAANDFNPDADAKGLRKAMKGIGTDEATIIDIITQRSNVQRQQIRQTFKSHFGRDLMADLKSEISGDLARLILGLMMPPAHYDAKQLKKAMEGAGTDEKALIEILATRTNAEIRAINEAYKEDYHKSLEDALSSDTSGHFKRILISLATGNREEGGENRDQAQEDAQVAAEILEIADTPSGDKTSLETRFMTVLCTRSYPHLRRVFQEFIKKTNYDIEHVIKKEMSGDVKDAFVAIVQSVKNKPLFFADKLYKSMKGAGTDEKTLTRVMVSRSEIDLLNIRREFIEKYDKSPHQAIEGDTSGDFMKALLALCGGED
The assay is described as above.

Assay [7] concerns the target T1, GST-annexin A6 fusion protein, full length. Described as above.
Assay [8] addresses sarcomeric alpha-actinin (rat (endogenous in heart homogenate)). Kind of assay: co-IP; rat whole heart homogenate immunoprecipitated with anti sarcomeric α-actinin antibody on Protein A agarose, overnight at 4°C; western blot with anti-AnxA6 antibody.

Results are given in words; binding and its absence hold for the method and conditions named. Binding seen in cells or lysates may run through a third protein. For some assays here: A result given as binding can be weak or reduced; the word gives no strength. For some assays here: Tags and fused reporters may be left off the sequences shown.

On to “sarcomeric alpha-actinin (rat (endogenous in heart homogenate))”, for which the binding result in assay [1] is given as “binds”; in assay [2], “binds”; in assay [3] it was “binds”; in assay [4], “no binding”; in assay [5] it was “no binding”; in assay [6] it was “no binding”. Moreover, the binding entry in assay [7] is on record as “binds”.

B1: annexin A6, endogenous in rat heart (protein, UniProt P48037 1-673)
chain: T1 sequence
Regarding B1, the binding result in assay [8] is “binds”.
